{
  "source": "patent US20010001713A1",
  "about": "“Composition and method for measuring the foliar uptake of agrochemicals” (priority 1999, published 2001)",
  "experiment": "Glass plate control run of Example 3 (loss of dimethomorph other than by plant uptake)",
  "conditions": "24 hours after spraying, stored in the dark at room temperature",
  "note": "Several values for one entry are separate records, joined by “and”; a condition that tells them apart may be missing. Identical values can stand only once. The name of at least one read-out is uncertain.",
  "data": [
    {"smiles": "COc1ccc(C(=CC(=O)N2CCOCC2)c2ccc(Cl)cc2)cc1OC", "note": "[Dimethomorph, dimethomorph]", "values": [
      {"measurement": "Recovery (%) of dimethomorph", "value": "~100% and 100.0%"}
    ]}
  ]
}
